Values from PubChem BioAssay AID1259254 (NCATS, 2017).
Screen: 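Finding genes that stop cells copying their DNA twice in one cycle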 (primary screen). Cell system: human HCT116 colorectal cancer cells. Knock-down reagent: single siRNA against human genes. Duration: 3 days. Measurement: 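Nuclei stained with Hoechst and imaged; cell-cycle phase assigned by DNA content; G2 share scaled per plate, non-targeting siRNA 0%, GMNN siRNA 100%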. Scale: G2 robust z-score: higher = more G2 cells, more excess DNA replication. Active means: 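Active siRNAs have a G2 robust z of 5 or more median absolute deviations over the median, which in these data means about 38% or higher of GMNN control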.
In all, the deposit lists about 59,000 reagents; shown is an unselected part. About 1,550 of all reagents (2.6%) count as active. 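G2 share is only a proxy for re-replication; each gene was hit by three separate siRNAs, and active genes were retested.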 A number with no mark means an inactive call. The numbers tell different reagents against one gene apart. Not all columns of the deposit are shown. Not stated in the record: the amount of reagent.

Gene | reagent | G2 robust z-score
PXK (PX domain containing serine/threonine kinase like) | 1 | -1.44
PXK (PX domain containing serine/threonine kinase like) | 2 | 0.433
PXK (PX domain containing serine/threonine kinase like) | 3 | 0.0134
ZNF540 (zinc finger protein 540) | 1 | 0.18
ZNF540 (zinc finger protein 540) | 2 | -0.518
ZNF540 (zinc finger protein 540) | 3 | 0.729
GNB1L (G protein subunit beta 1 like) | 1 | 1.54
GNB1L (G protein subunit beta 1 like) | 2 | 0.0523
GNB1L (G protein subunit beta 1 like) | 3 | -0.163
PPM1N (protein phosphatase, Mg2+/Mn2+ dependent 1N (putative)) | 1 | -0.217
PPM1N (protein phosphatase, Mg2+/Mn2+ dependent 1N (putative)) | 2 | -0.403
PPM1N (protein phosphatase, Mg2+/Mn2+ dependent 1N (putative)) | 3 | 1.05
CFAP77 (cilia and flagella associated protein 77) | 1 | 0.556
CFAP77 (cilia and flagella associated protein 77) | 2 | -0.52
CFAP77 (cilia and flagella associated protein 77) | 3 | -0.344
ZNF607 (zinc finger protein 607) | 1 | -0.0416
ZNF607 (zinc finger protein 607) | 2 | 0.834
ZNF607 (zinc finger protein 607) | 3 | -0.0805
SLC51A | 1 | 0.545
SLC51A | 2 | -0.856
SLC51A | 3 | 1.57
TUBB2B (tubulin beta 2B class IIb) | 1 | 0.269
TUBB2B (tubulin beta 2B class IIb) | 2 | 0.0998
TUBB2B (tubulin beta 2B class IIb) | 3 | -1.26
TFDP3 (transcription factor Dp family member 3) | 1 | -0.344
TFDP3 (transcription factor Dp family member 3) | 2 | -0.208
TFDP3 (transcription factor Dp family member 3) | 3 | 2.25
PRRT3 (proline rich transmembrane protein 3) | 1 | 1.29
PRRT3 (proline rich transmembrane protein 3) | 2 | -0.911
PRRT3 (proline rich transmembrane protein 3) | 3 | -0.932
KLHL34 (kelch like family member 34) | 1 | -0.167
KLHL34 (kelch like family member 34) | 2 | 2.65
KLHL34 (kelch like family member 34) | 3 | -0.799
KMT2A (lysine methyltransferase 2A) | 1 | 10.9 (active)
KMT2A (lysine methyltransferase 2A) | 2 | -0.431
KMT2A (lysine methyltransferase 2A) | 3 | -0.802
USP33 (ubiquitin specific peptidase 33) | 1 | -0.69
USP33 (ubiquitin specific peptidase 33) | 2 | 0.824
USP33 (ubiquitin specific peptidase 33) | 3 | -0.612
CABP7 (calcium binding protein 7) | 1 | 0.99
CABP7 (calcium binding protein 7) | 2 | -0.163
CABP7 (calcium binding protein 7) | 3 | 3.57
MRGPRE (MAS related GPR family member E) | 1 | 0.46
MRGPRE (MAS related GPR family member E) | 2 | 2.91
MRGPRE (MAS related GPR family member E) | 3 | 0.972
MOAP1 (modulator of apoptosis 1) | 1 | -0.695
MOAP1 (modulator of apoptosis 1) | 2 | -0.487
MOAP1 (modulator of apoptosis 1) | 3 | -0.117
DRC11 (dynein regulatory complex subunit 11) | 1 | 2.7
DRC11 (dynein regulatory complex subunit 11) | 2 | -0.969
DRC11 (dynein regulatory complex subunit 11) | 3 | -0.221
PYGB (glycogen phosphorylase B) | 1 | 0.176
PYGB (glycogen phosphorylase B) | 2 | -0.294
PYGB (glycogen phosphorylase B) | 3 | 0.947
MAGEB5 (MAGE family member B5) | 1 | 3.57
MAGEB5 (MAGE family member B5) | 2 | 1.54
MAGEB5 (MAGE family member B5) | 3 | 0.678
TLR9 (toll like receptor 9) | 1 | 5.81 (active)
TLR9 (toll like receptor 9) | 2 | 3.21
TLR9 (toll like receptor 9) | 3 | 1.84
RFLNA (refilin A) | 1 | -0.381
RFLNA (refilin A) | 2 | 0.00776
RFLNA (refilin A) | 3 | -0.937
PTCD3 (pentatricopeptide repeat domain 3) | 1 | 0.0422
PTCD3 (pentatricopeptide repeat domain 3) | 2 | 0.0684
PTCD3 (pentatricopeptide repeat domain 3) | 3 | -1.09
OLFM2 (olfactomedin 2) | 1 | -0.976
OLFM2 (olfactomedin 2) | 2 | -0.522
OLFM2 (olfactomedin 2) | 3 | 0.959
